Experimental data: PubChem BioAssay AID1224826 (NIAID, 2016)
This is one part, drawn at random, of about 17,000 reagents tested. About 1,110 of them (6.6%) count as active. 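Active means lowered or raised reporter signal; replicate intensities are raw and not normalised per plate.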 Further read-outs or replicates are left out here.

Screen: 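Knock-downs that raise or lower Tnf reporter signal after endotoxin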 (primary screen)
System: RAW264.7 G9 macrophages from mouse bearing reporters for p65 (GFP) and the Tnf promoter (mCherry)
Reagents: siRNA pool against mouse genes, 100 nM
Duration: 16 h of LPS stimulation, after 2 days of siRNA transfection
Conditions: bacterial lipopolysaccharide (Salmonella minnesota R595), 10 ng/ml
Measured: 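Nuclear mCherry signal of the Tnf promoter reporter measured by imaging after background removal, scaled to each plate median and turned into robust z-scores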
Reading the numbers: Tnf reporter robust z-score: higher = stronger Tnf promoter reporter signal after LPS
Call rule: 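Called active when robust z-score is at most -1.3, matching the median of the Tlr4 knock-down control, or over 3; control wells and wells with under 50 cells never active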
Calls: active = Tnf reporter clearly lowered or raised; inactive = no clear change in Tnf reporter

What is on record for Tmem120a?
fewer than 50 cells in well: fewer than 50 cells per well; well left out of calls; call: inactive

What is on record for Tacc3?
Tnf reporter robust z-score: -1.07; fewer than 50 cells in well: enough cells in well; call: inactive

Which result is listed for Mtmr11?
Tnf reporter robust z-score: 1.16; fewer than 50 cells in well: enough cells in well; call: inactive

With Abhd3, what does the deposit list?
Tnf reporter robust z-score: -0.81; fewer than 50 cells in well: enough cells in well; call: inactive

Which result is listed for Fv4?
Tnf reporter robust z-score: -0.43; fewer than 50 cells in well: enough cells in well; call: inactive

What is on record for Dnajc24?
Tnf reporter robust z-score: 1.08; fewer than 50 cells in well: enough cells in well; call: inactive

How did the screen score Zic2?
Tnf reporter robust z-score: -0.38; fewer than 50 cells in well: enough cells in well; call: inactive

Not a retest: an excerpt of the list.
Tmem120a → fewer than 50 cells in well = fewer than 50 cells per well; well left out of calls; call = inactive
Tacc3 → Tnf reporter robust z-score = -1.07; fewer than 50 cells in well = enough cells in well; call = inactive

Additional reagents follow:
How did the screen score Rgs11?
Tnf reporter robust z-score: 0.86; fewer than 50 cells in well: enough cells in well; call: inactive

What did the screen give for Mtpn?
Tnf reporter robust z-score: -0.1; fewer than 50 cells in well: enough cells in well; call: inactive

For Or8d4, what does the deposit list?
Tnf reporter robust z-score: 1.14; fewer than 50 cells in well: enough cells in well; call: inactive

What is on record for Pgm2l1?
Tnf reporter robust z-score: 0.63; fewer than 50 cells in well: enough cells in well; call: inactive

How did the screen score 2900092C05Rik?
fewer than 50 cells in well: fewer than 50 cells per well; well left out of calls; call: inactive

For Ndst1, how do the results read?
Tnf reporter robust z-score: -1.62; fewer than 50 cells in well: enough cells in well; call: active

What is on record for Nsun5?
Tnf reporter robust z-score: -0.24; fewer than 50 cells in well: enough cells in well; call: inactive
